Reference: PubChem BioAssay AID2685 (National Center for Advancing Translational Sciences (NCATS), 2010)
Some of the results follow. Further columns of the screen follow, without active or inactive calls. The list favours compounds with an active or inconclusive main result. Words in brackets tell the shape of the fitted curve; partial curves, single points and poor fits give uncertain potencies.

Experiment: qHTS Assay for Lipid Storage Modulators in Drosophila S3 Cells;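 on cell number change: cells counted by Cell Tracker Red CMTPX staining in the red channel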
Conditions: BODIPY lipid droplet fluorescence, 18-24 h; for cell number change: measured here: cell count max response, cells fed with added oleic acid
How it was run: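 Laser-scanning cytometry quantifies lipid droplet accumulation (500–530 nm total intensity; droplet/cell object ratio) in oleic acid-fed (400 uM added) Drosophila S3 cells treated with a concentration series. 20 uM Triacsin C defined 100% inhibition.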

[1] = measured here: lipid fluorescence (Fed channel) AC50, cells fed with added oleic acid
[2] = measured here: cell number channel AC50, cells fed with added oleic acid

Compound	cell number change	AC50 [1]	AC50 [2]
CC(=O)Nc1ccc(S(=O)(=O)Nc2cc3c(cc2C(C)=O)OCO3)cc1	15.1%	6.51 µM [rising, single point]	
COc1ccccc1CN1CCN(Cc2nc(-c3ccc(C)cc3)oc2C)CC1	-8.63%	0.731 µM [rising, full curve, poor fit]	
CCOC(=O)CSC1=C(C#N)C(=O)NC2(CCCCC2)S1	30.6%		29.1 µM [rising, single point]
NC(=O)CCN(Cc1ccccc1)S(=O)(=O)c1ccccc1	-31.7%	5.8 µM [falling, partial curve, poor fit]	
Cc1cc(C)n(-c2nc3c(c(=O)[nH]c(=O)n3C)n2C)n1	35.5%		16.4 µM [rising, single point]
CCC1(CC)Cc2ccccc2C(CC(=O)N2CCOCC2)=N1		0.651 µM [rising, single point]	6.51 µM [rising, single point]
Clc1ccccc1Nc1nnc(-c2ccncc2)s1	-1.08%	4.11 µM [rising, single point]	
NC(=O)C1CCN(C(=O)c2cccc(S(=O)(=O)N3CCCC3)c2)CC1	-5.1%	11.6 µM [falling, partial curve]	
Cc1cc(C)nc(NN2C(=O)C=CC2=O)n1	-65.7%	29.1 µM [falling, single point]	29.1 µM [falling, single point]
COc1ccc(C(=O)NC(CO)c2nnc(SCc3ccc(Cl)c(Cl)c3)n2C)cc1 (centres undefined)	1.04%	7.31 µM [rising, partial curve]	
Cc1ccc(S(=O)(=O)N2CCOCC2)cc1C(=O)NCCN1C(=O)S/C(=C\c2ccccc2Cl)C1=O	-9.04%		
CCOC(=O)C1=C(C)Nc2nc(SCC)nn2C1c1ccc(OC)cc1 (centres undefined)	7.59%		
CCOc1ccc(N(CC(=O)OC)S(=O)(=O)c2ccc(OC)c(OC)c2)cc1		6.51 µM [rising, partial curve, poor fit]	
COc1ccc(C(=O)Nc2cccc(-c3nc4ncccc4o3)c2C)cc1OC		0.259 µM [rising, full curve, poor fit]	0.291 µM [rising, partial curve, poor fit]
COc1ccc(C(=O)N/N=C/c2cn[nH]c2-c2ccc(OC)cc2OC)cc1	22.3%	5.8 µM [rising, full curve, poor fit]	
FC(F)(F)c1cccc(NC(=S)N2CCCC2)c1		0.13 µM [rising, full curve]	0.082 µM [rising, full curve, poor fit]
NC(=O)c1ccc(NC(=O)COC(=O)c2cc([N+](=O)[O-])ccc2N2CCOCC2)cc1	33.9%	6.51 µM [falling, single point]	9.2 µM [rising, partial curve]
CCOc1ccccc1NC(=O)CSc1nc(=O)n(CCCN2CCOCC2)c2c1CCC2			0.291 µM [falling, partial curve, poor fit]
CCn1cc(CNC(=O)/C=C/c2ccc([N+](=O)[O-])cc2)c(C)n1	3.16%	23.1 µM [falling, single point]	
COc1ccc(C(C)NC(=O)CC23CC4CC(CC(C4)C2)C3)cc1 (centres undefined)	-4.11%		
Cc1ccc(OCC(=O)Nc2ccncc2)c(C)c1	-23.9%	29.1 µM [falling, single point]	

Compound	cell number change	AC50 [1]	AC50 [2]
Cn1c(SCC(=O)N2CCN(S(=O)(=O)c3ccc(Cl)cc3)CC2)nc2ccccc21	52.9%		11.6 µM [rising, partial curve]
O=C(OCc1c(Cl)nc2sccn12)c1cc2c(s1)CCCC2	3.65%		
COc1cccc(C2C3CN(C)CC=C3C(C#N)=C(N)C2(C#N)C#N)c1OC (centres undefined)			1.84 µM [rising, partial curve, poor fit]
C=CCN1C(=O)N/C(=C/c2ccc(C)o2)C1=O	-37.2%	29.1 µM [falling, partial curve, poor fit]	32.6 µM [falling, single point]
COc1ccc(-c2cc3c(=O)n(CC(=O)NCCCc4ccccc4)ncn3n2)cc1	33.1%		29.1 µM [rising, single point]
CCOC(=O)c1sc(NC(=O)CSc2nccc(C)n2)nc1C	61.1%		
COc1cccc(/C=N/NC(=O)c2ccc(N3CCCC3=O)cc2)c1	8.33%		6.51 µM [rising, single point]
COc1ccc(CN(CC2CCCO2)C(=O)c2cc3sccc3n2C)c(OC)c1 (centres undefined)	23.9%	29.1 µM [rising, single point]	
Cc1cc(N2C(=O)C(O)=C(C(=O)c3ccco3)C2c2ccccc2F)no1 (centres undefined)	0.348%		
CCOC(=O)c1c(-c2ccccc2)csc1NC(=O)CSc1ccccc1	30.7%	7.31 µM [rising, partial curve]	1.64 µM [rising, full curve, poor fit]
Cc1ccc(CNC(=O)CSc2ncc(C(=O)Nc3ccccc3)c(=O)n2C)cc1	3%		
O=C(Nc1ccc2c(c1)OCCO2)c1cc(F)c(F)cc1Cl	-23.5%	10.3 µM [rising, partial curve]	
O=C(NC1CCCCC1)C1CCCN(S(=O)(=O)c2cccs2)C1 (centres undefined)	-25.6%	16.4 µM [falling, partial curve, poor fit]	
CCOC(CNC(=O)C(=O)Nc1cc2c3c(c1)CCC(=O)N3CCC2)OCC	15.3%	29.1 µM [falling, single point]	
COc1ccc(NC(=O)c2csc(C)c2)cc1OC		22.4 µM [rising, single point]	
COc1ccc(CC(=O)OCC(=O)c2ccc(S(=O)(=O)N3CCCCC3)cc2)cc1	-2.69%	0.731 µM [rising, full curve, poor fit]	
COCC1CCN(Cc2nc(-c3ccc4c(c3)OCO4)no2)C1 (centres undefined)		29.1 µM [rising, single point]	
O=C(NNC(=S)NC1CCCCC1)c1ccccc1Br	0.472%		
COc1ccc(N2C(=O)CN=C2Nc2cccc(C)c2C)cc1OC	13.7%	4.11 µM [rising, full curve, poor fit]	
O=C(NCC1CCCN(C(=O)c2cscn2)C1)c1ccccc1Cl (centres undefined)	-2.41%	6.51 µM [falling, single point]	
Cc1nn(CC(=O)NCCN2CCOCC2)c(C)c1[N+](=O)[O-]	-31%	0.206 µM [rising, full curve, poor fit]	29.1 µM [falling, single point]

Compound	cell number change	AC50 [1]	AC50 [2]
CC(CNS(=O)(=O)c1ccccc1)Sc1ncccn1 (centres undefined)	-11%	0.00651 µM [falling, full curve, poor fit]	
Clc1ccc(CNCCC2=CCCCC2)cc1		6.51 µM [falling, single point]	6.51 µM [falling, single point]
CC(=O)c1ccc(NC(=O)Nc2cccc(Cl)c2)cc1	-78.1%	29.1 µM [falling, single point]	5.8 µM [falling, partial curve]
CC(CC(=O)O)C(=O)c1ccc(Cl)c([N+](=O)[O-])c1 (centres undefined)	9.07%	0.58 µM [falling, single point]	0.731 µM [falling, single point]
Cc1cc(C)c2nc(N3CCCN(C(=O)c4cnccn4)CC3)c(C#N)cc2c1	-11.5%		
O=C(/C=C/c1cccc(Cl)c1Cl)OCC(=O)N1CCOCC1	-20.6%		
Cc1nn(C)cc1CNC(=O)c1cnn2c1NC(c1ccc(Br)cc1)CC2C(F)(F)F (centres undefined)	-14.8%	0.326 µM [rising, full curve, poor fit]	
COc1ccc(OC)c(NC(=O)CN(Cc2ccc(F)cc2)C2CCCCC2)c1		4.11 µM [falling, full curve]	
O=C(Cn1cnc2ccccc21)N/N=C/c1ccccc1	-5.37%		3.26 µM [rising, single point]
Cc1nnc(SCC(=O)Nc2cc(C(F)(F)F)ccc2Cl)n1C	-12.4%		0.116 µM [falling, full curve, poor fit]
CNCc1ccccc1OCc1ccccc1F	15.5%	4.61 µM [rising, single point]	
COC(=O)CC(NC(=O)c1cccs1)c1ccc(OC)c(OC)c1 (centres undefined)	-10%		6.51 µM [falling, single point]
COCCOc1ccc(C(F)(F)F)cc1NC(=O)c1ccccc1F	0.0804%	2.59 µM [rising, full curve]	
COc1ccccc1NS(=O)(=O)c1ccc(N/N=C/c2c(C)nn(-c3ccccc3)c2N2CCCC2)c([N+](=O)[O-])c1	-87.4%	25.9 µM [falling, single point]	4.11 µM [falling, full curve]
Cn1c(=O)c2[nH]c(N3CCOCC3)nc2n(-c2ccccc2)c1=O	8.12%	20.6 µM [falling, partial curve]	
O=C(NNC(=O)C1CC(=O)N(Cc2ccccc2)C1)c1ccc(Br)cc1 (centres undefined)	-26.2%	18.4 µM [rising, partial curve]	
Cn1c(CN2CCN(c3ccc(Cl)cc3)CC2)nc2ccccc21	0.212%	2.31 µM [rising, partial curve]	
CCOC(=O)Cc1cn(C(=O)OC(C)(C)C)c2ccccc12	-17.1%	0.116 µM [falling, single point]	
COc1ccccc1NCCC#N	11.3%	29.1 µM [falling, single point]	

Shown with bars between the fields: 3 of the compounds above.
Compound | cell number change | AC50 [1] | AC50 [2]
Clc1ccc(CNCCC2=CCCCC2)cc1 |  | 6.51 µM [falling, single point] | 6.51 µM [falling, single point]
CC(=O)c1ccc(NC(=O)Nc2cccc(Cl)c2)cc1 | -78.1% | 29.1 µM [falling, single point] | 5.8 µM [falling, partial curve]
CC(CC(=O)O)C(=O)c1ccc(Cl)c([N+](=O)[O-])c1 (centres undefined) | 9.07% | 0.58 µM [falling, single point] | 0.731 µM [falling, single point]
